Results: the supplement of paper PMC10849652
The list shows a part of the results.

Sequences of proteins named here, by UniProt entry; tags and fusion partners are left off. A change or cut given only in a name is not applied to a line headed by its entry.
UniProt Q9Y394: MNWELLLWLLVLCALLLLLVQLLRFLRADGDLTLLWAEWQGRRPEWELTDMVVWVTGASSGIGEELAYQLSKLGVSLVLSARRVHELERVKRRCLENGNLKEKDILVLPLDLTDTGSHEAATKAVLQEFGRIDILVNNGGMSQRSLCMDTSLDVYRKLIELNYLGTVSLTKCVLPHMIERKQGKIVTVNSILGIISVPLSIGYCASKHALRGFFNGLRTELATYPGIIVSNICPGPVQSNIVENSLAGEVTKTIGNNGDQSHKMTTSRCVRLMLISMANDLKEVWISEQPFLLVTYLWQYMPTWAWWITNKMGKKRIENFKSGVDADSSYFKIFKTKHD
UniProt Q9UBM7: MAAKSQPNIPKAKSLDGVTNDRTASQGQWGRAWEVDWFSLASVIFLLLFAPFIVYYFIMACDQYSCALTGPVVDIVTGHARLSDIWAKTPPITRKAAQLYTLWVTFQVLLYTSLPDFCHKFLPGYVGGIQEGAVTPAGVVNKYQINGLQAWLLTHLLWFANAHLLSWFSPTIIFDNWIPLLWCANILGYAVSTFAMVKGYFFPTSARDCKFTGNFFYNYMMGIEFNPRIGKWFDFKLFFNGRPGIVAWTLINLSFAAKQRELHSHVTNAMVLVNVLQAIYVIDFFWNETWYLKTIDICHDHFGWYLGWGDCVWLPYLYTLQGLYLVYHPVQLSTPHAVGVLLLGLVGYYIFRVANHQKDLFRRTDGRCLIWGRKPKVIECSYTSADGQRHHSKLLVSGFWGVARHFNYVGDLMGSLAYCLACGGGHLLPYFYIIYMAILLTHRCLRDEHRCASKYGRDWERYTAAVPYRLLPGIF
UniProt Q13268: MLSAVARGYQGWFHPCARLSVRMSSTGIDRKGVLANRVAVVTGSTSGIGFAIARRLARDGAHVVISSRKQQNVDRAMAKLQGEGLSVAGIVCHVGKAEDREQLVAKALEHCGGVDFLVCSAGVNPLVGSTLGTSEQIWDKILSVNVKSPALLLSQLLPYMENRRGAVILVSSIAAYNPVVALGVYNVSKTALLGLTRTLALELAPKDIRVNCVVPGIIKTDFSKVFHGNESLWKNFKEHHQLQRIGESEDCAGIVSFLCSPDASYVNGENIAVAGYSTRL
UniProt O75907: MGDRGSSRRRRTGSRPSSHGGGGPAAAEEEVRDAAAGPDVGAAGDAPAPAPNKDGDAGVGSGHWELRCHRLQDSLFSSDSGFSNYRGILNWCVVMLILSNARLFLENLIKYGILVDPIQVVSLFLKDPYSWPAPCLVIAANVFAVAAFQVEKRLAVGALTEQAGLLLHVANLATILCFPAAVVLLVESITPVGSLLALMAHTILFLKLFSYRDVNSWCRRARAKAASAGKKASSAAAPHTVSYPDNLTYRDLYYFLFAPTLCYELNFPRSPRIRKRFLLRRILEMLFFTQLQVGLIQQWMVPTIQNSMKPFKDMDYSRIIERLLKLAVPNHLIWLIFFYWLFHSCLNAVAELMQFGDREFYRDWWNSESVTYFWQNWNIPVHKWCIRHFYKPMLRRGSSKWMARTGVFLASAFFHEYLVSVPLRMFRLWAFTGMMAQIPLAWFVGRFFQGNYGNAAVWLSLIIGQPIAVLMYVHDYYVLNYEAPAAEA
UniProt Q9Y6V7: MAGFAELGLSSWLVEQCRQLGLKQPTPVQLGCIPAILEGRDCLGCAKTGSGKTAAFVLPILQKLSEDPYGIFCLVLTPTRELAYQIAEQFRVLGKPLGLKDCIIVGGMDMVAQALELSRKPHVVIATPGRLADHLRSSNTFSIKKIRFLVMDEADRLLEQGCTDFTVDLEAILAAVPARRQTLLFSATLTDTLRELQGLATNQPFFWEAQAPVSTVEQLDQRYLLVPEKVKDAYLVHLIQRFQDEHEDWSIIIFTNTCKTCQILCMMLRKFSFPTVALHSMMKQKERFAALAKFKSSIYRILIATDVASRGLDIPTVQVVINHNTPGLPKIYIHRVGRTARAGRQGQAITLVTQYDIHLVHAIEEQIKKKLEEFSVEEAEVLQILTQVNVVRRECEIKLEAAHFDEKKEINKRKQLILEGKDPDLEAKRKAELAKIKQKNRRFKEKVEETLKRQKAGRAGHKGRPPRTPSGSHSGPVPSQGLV
UniProt Q13574: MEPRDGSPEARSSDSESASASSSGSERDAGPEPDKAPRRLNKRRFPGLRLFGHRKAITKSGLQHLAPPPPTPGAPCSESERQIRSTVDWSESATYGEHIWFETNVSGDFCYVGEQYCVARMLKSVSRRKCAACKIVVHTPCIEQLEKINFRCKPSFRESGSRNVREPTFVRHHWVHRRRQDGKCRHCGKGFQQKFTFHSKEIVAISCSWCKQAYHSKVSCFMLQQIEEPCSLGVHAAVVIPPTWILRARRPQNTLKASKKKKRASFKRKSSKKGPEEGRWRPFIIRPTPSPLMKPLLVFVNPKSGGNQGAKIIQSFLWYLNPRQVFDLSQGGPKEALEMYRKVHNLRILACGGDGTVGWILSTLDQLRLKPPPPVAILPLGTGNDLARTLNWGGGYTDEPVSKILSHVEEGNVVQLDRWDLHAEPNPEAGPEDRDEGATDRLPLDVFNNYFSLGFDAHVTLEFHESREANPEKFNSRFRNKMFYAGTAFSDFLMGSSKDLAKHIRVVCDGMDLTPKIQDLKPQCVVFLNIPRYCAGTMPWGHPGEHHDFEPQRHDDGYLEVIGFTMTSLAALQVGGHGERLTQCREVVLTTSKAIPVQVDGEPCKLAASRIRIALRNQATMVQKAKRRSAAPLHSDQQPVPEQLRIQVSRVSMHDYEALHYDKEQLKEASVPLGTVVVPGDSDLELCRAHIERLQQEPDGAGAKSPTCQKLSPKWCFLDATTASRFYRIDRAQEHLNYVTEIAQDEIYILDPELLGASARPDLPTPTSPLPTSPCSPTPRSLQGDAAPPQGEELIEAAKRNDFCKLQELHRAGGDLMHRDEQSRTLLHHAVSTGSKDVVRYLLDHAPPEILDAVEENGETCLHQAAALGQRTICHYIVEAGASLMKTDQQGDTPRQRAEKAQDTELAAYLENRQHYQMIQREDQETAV
UniProt Q15392: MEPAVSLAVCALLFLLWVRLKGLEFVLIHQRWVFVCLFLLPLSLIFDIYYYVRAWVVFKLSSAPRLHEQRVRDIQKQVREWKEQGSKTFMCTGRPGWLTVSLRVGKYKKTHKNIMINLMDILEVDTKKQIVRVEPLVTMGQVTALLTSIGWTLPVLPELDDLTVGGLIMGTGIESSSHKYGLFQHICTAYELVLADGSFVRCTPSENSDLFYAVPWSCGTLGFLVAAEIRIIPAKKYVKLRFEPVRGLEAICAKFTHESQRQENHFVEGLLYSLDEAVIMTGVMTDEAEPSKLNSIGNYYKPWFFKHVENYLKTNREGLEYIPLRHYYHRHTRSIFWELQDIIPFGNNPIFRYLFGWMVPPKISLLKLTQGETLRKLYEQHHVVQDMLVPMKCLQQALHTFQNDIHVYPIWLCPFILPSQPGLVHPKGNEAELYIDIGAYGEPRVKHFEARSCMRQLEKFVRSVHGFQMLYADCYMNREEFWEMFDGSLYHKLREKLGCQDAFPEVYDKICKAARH
UniProt Q08211, whole entry, looked up: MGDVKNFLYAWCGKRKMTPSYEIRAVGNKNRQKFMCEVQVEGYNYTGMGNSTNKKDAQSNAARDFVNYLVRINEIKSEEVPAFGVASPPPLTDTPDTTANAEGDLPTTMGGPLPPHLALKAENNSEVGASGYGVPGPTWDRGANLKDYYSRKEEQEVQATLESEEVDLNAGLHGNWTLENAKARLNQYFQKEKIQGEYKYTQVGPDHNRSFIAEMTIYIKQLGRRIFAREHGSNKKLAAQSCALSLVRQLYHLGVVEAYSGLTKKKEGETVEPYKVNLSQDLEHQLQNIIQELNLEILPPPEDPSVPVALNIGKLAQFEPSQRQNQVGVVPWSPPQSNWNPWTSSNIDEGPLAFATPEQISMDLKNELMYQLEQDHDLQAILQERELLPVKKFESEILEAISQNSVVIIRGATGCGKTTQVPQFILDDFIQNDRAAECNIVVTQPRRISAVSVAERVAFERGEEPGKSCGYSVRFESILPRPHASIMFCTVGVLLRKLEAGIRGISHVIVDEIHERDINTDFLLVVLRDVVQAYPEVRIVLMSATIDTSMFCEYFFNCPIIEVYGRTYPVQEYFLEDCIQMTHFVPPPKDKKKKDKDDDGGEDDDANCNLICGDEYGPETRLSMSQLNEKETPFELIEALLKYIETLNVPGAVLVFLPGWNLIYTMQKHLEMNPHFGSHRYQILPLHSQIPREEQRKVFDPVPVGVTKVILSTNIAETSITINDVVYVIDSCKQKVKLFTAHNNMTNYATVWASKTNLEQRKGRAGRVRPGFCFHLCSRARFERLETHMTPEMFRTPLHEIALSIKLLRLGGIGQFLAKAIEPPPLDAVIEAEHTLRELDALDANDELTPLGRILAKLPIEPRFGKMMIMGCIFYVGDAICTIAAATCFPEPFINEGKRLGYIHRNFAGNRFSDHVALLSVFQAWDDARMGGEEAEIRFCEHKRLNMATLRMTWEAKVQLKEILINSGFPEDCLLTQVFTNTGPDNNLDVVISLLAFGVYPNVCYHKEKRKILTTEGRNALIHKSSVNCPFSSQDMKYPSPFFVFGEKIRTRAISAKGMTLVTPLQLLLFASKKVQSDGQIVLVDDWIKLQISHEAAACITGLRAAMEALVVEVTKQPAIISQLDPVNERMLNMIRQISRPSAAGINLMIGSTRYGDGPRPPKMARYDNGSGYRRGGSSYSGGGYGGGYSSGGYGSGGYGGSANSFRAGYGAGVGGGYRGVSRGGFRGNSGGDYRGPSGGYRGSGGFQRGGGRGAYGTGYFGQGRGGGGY
UniProt P52429: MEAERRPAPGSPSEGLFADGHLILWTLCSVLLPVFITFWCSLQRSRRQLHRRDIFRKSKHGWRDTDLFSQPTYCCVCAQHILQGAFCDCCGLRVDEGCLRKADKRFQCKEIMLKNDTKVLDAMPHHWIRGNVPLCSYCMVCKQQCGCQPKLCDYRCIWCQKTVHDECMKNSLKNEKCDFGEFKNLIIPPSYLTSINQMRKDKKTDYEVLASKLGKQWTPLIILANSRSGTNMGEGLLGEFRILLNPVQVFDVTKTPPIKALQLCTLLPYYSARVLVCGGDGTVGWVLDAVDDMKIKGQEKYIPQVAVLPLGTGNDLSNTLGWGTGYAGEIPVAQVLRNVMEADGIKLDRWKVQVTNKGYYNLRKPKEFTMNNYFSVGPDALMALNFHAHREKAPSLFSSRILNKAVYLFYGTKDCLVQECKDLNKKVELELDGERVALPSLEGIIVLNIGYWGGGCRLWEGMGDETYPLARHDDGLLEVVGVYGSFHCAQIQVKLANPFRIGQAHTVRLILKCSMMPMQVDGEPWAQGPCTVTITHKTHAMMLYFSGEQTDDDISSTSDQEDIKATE
UniProt Q92841: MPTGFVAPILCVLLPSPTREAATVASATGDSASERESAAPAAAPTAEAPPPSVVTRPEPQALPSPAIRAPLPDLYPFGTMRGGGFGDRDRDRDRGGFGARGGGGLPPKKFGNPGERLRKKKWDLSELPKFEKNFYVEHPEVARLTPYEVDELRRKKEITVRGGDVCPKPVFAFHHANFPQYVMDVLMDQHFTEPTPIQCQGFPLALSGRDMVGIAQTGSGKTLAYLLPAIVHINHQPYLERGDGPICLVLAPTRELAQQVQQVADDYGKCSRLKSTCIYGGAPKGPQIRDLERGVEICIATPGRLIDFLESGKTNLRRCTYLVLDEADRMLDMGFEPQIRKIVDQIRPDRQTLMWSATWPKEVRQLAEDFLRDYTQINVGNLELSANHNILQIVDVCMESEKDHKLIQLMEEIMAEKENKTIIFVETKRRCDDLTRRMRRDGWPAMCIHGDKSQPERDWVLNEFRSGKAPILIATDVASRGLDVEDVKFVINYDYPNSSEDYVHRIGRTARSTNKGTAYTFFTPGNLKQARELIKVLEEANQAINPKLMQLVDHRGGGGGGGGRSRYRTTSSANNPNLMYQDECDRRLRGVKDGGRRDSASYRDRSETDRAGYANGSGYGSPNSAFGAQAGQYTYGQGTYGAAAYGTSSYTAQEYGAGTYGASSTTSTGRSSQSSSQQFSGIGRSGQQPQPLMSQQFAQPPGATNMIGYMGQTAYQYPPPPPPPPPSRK
UniProt P35659: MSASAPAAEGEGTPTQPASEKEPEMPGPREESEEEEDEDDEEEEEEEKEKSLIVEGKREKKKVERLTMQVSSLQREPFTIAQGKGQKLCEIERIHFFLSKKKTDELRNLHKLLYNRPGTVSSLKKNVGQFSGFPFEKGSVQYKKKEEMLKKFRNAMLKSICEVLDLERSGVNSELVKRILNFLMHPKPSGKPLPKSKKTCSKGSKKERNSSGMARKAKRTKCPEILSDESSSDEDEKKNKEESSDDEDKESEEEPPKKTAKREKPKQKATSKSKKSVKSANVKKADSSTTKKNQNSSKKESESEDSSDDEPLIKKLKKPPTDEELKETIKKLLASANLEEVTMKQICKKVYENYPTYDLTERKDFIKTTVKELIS

Columns and labels:
Experiment in all cases: log2 fold change, soluble protein after heating vs DMSO (PISA); higher = thermal stabilisation; K562 cells, 10 uM, 30 min; active = over 0.2 and 3.5 SD of the protein, either way, in both replicates (recomputed)
[1] = compound: COC1=CC=C(C=C1)CN2C=CC3=C2C=C(C=C3)C(=O)NO
How it was run: (§1)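 K562 cells at 2×10^6 cells/mL were treated for 30 min with 10 μM compound, and aliquots were heated for 3 min over 48°C-58°C before pooling. Extraction used PBS with 0.5% NP-40 at 4°C, and soluble protein was the supernatant after 21,000xg for 90 min, measured by TMTpro 16plex LC-MS/MS with channel sums equalised. Thermal stability values, relative to control samples and from duplicates, are log2 fold changes.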

filanesib = compound: CON(C)C(=O)N1N=C(c2cc(F)ccc2F)S[C@@]1(CCCN)c1ccccc1 [filanesib]
How it was run: as §1

zotarolimus = compound: CO[C@H]1C[C@@H]2CC[C@@H](C)[C@@](O)(O2)C(=O)C(=O)N2CCCC[C@H]2C(=O)O[C@H]([C@H](C)C[C@@H]2CC[C@H](n3cnnn3)[C@H](OC)C2)CC(=O)[C@H](C)/C=C(\C)[C@@H](O)[C@@H](OC)C(=O)[C@H](C)C[C@H](C)/C=C/C=C/C=C/1C [zotarolimus]
How it was run: as §1

idasanutlin = compound: COc1cc(C(=O)O)ccc1NC(=O)[C@@H]1N[C@@H](CC(C)(C)C)[C@](C#N)(c2ccc(Cl)cc2F)[C@H]1c1cccc(Cl)c1F [idasanutlin]
How it was run: as §1

alisertib = compound: COc1cc(Nc2ncc3c(n2)-c2ccc(Cl)cc2C(c2c(F)cccc2OC)=NC3)ccc1C(=O)O [alisertib]
How it was run: as §1

[2] = compound: COc1cc2nc(-c3cc(F)ccc3O)nc(N[C@@H]3CNC[C@H]3C(C)(C)O)c2cc1OC
How it was run: as §1

gefitinib = compound: COc1cc2ncnc(Nc3ccc(F)c(Cl)c3)c2cc1OCCCN1CCOCC1 [gefitinib]
How it was run: as §1

[3] = compound: COc1cccc2cc(-c3nc([C@H]4CC[C@H](C(=O)O)CC4)n4ncnc(N)c34)[nH]c12
How it was run: as §1

lapatinib = compound: CS(=O)(=O)CCNCc1ccc(-c2ccc3ncnc(Nc4ccc(OCc5cccc(F)c5)c(Cl)c4)c3c2)o1 [lapatinib]
How it was run: as §1

pictilisib = compound: CS(=O)(=O)N1CCN(Cc2cc3nc(-c4cccc5[nH]ncc45)nc(N4CCOCC4)c3s2)CC1 [pictilisib]
How it was run: as §1

Target	log2 fold change [1]	log2 fold change (filanesib)	log2 fold change (zotarolimus)	log2 fold change (idasanutlin)	log2 fold change (alisertib)	log2 fold change [2]	log2 fold change (gefitinib)	log2 fold change [3]	log2 fold change (lapatinib)	log2 fold change (pictilisib)
DIS3L (UniProt Q8TF46)	inactive: -0.247	inactive: 0.004	inactive: -0.23	inactive: -0.002	inactive: 0.034	inactive: -0.189	inactive: 0.019	inactive: -0.074	inactive: 0.031	
DLGAP4 (UniProt Q9Y2H0)	inactive: 0.049	inactive: -0.029	inactive: -0.022	inactive: 0.024	inactive: 0.008	inactive: -0.036	inactive: 0.009	inactive: 0.03	inactive: 0.008	inactive: 0.051
DHRS7 (UniProt Q9Y394)	inactive: -0.041	inactive: -0.086	inactive: -0.02	inactive: -0.015	inactive: -0.046	inactive: -0.007	inactive: 0.041	inactive: 0.032	inactive: 0.032	inactive: -0.038
DHRS11 (UniProt Q6UWP2)	inactive: -0.003	inactive: -0.089	inactive: 0.001	inactive: -0.121	inactive: -0.022	inactive: 0.01	inactive: 0	inactive: 0.06	inactive: -0.043	inactive: 0.072
DENND1B (UniProt Q6P3S1)	inactive: -0.124	inactive: 0.038	inactive: -0.086	inactive: 0.017	inactive: 0.408	inactive: 0.013	inactive: 0.001	inactive: -0.368	inactive: -0.01	
DHX34 (UniProt Q14147)	inactive: -0.017									
DDX56 (UniProt Q9NY93)	inactive: -0.029	inactive: 0.268	inactive: -0.006	inactive: 0.144	inactive: -0.237	inactive: -0.108	inactive: 0.004	inactive: -0.137	inactive: 0.154	inactive: -0.018
DGCR2 (UniProt P98153)	inactive: 0.005	inactive: -0.01	inactive: 0.009	inactive: -0.049	inactive: -0.113	inactive: 0.005	inactive: -0.096	inactive: 0.102	inactive: 0.006	inactive: 0.055
DHCR7 (UniProt Q9UBM7)	inactive: -0.182	inactive: -0.025	inactive: -0.088	inactive: -0.278	inactive: 0.01	inactive: 0.101	inactive: 0.088	inactive: -0.167	inactive: -0.009	inactive: -0.115
DHRS2 (UniProt Q13268)	inactive: -0.034	inactive: -0.014	inactive: 0.035	inactive: -0.152	inactive: -0.046	inactive: 0.01	inactive: 0.018	inactive: 0.041	inactive: 0.041	inactive: 0.163
DDX5 (UniProt P17844)	inactive: 0.118	inactive: 0.013	inactive: 0.062	inactive: 0.024	inactive: 0.006	inactive: 0.088	inactive: 0.031	inactive: 0.004	inactive: 0.02	inactive: 0.097
DHODH (UniProt Q02127)	inactive: -0.008	inactive: -0.014	inactive: -0.031	inactive: 0.007	inactive: -0.024	inactive: 0.051	inactive: 0.011	inactive: 0.061	inactive: -0.065	inactive: -0.003
DDX46 (UniProt Q7L014)	inactive: 0.109	inactive: -0.003	inactive: 0.046	inactive: 0.029	inactive: 0.434	inactive: 0.001	inactive: 0.041	inactive: -0.005	inactive: 0.026	inactive: 0.117
DGAT1 (UniProt O75907)	inactive: -0.063	inactive: -0.006	inactive: -0.038	inactive: -0.047	inactive: -0.053	inactive: -0.022	inactive: -0.064	inactive: 0.043	inactive: -0.001	inactive: 0.08
DEPDC5 (UniProt O75140)	inactive: -0.119									
DDX49 (UniProt Q9Y6V7)	inactive: -0.052	inactive: 0.213	inactive: 0.001	inactive: 0.055	inactive: -0.138	inactive: -0.02	inactive: -0.041	inactive: -0.091	inactive: 0.1	inactive: 0.062
DDI2 isoform 3 (UniProt Q5TDH0)	inactive: 0.009	inactive: -0.057	inactive: 0.016	inactive: -0.032	inactive: -0.049	inactive: -0.043	inactive: -0.02	inactive: 0.035	inactive: 0.03	inactive: 0

Taken from above:
DHRS2 (UniProt Q13268) – log2 fold change [3]: inactive: 0.041
DHCR7 (UniProt Q9UBM7) – log2 fold change (gefitinib): inactive: 0.088

Next entries follow:

Target	log2 fold change [1]	log2 fold change (filanesib)	log2 fold change (zotarolimus)	log2 fold change (idasanutlin)	log2 fold change (alisertib)	log2 fold change [2]	log2 fold change (gefitinib)	log2 fold change [3]	log2 fold change (lapatinib)	log2 fold change (pictilisib)
DHTKD1 (UniProt Q96HY7)	inactive: -0.06									
DENND4C isoform 7 (UniProt Q5VZ89)	inactive: 0.049	inactive: -0.059	inactive: -0.01	inactive: 0.012	inactive: 0.017	inactive: -0.04	inactive: -0.022	inactive: -0.031	inactive: 0.008	inactive: 0.171
DGKZ (UniProt Q13574)	inactive: -0.015	inactive: 0.053	inactive: 0.019	inactive: 0.187	inactive: -0.008	inactive: 0.217	inactive: 0.089	inactive: -0.091	inactive: 0.022	inactive: -0.03
DLD (UniProt P09622)	inactive: -0.003	inactive: -0.106	inactive: -0.032	inactive: 0.004	inactive: -0.024	inactive: -0.056	inactive: -0.096	inactive: 0.036	inactive: -0.015	inactive: 0.067
DHCR24 (UniProt Q15392)	inactive: 0.061	inactive: -0.074	inactive: 0.013	inactive: -0.087	inactive: -0.123	inactive: 0.047	active: 1.05	inactive: -0.038	inactive: 0.711	inactive: 0.055
DHX9 (UniProt Q08211)	inactive: -0.015	inactive: 0.309	inactive: -0.06	inactive: 0.156	inactive: -0.106	inactive: 0.182	inactive: -0.063	inactive: -0.037	inactive: 0.061	inactive: -0.037
DIMT1 (UniProt Q9UNQ2)	inactive: -0.02	inactive: 0.257	inactive: -0.02	inactive: 0.095	inactive: 0.094	inactive: -0.055	inactive: -0.032	inactive: -0.193	inactive: 0.11	inactive: -0.097
DIP2B (UniProt Q9P265)	inactive: -0.023	inactive: -0.041	inactive: 0.009	inactive: -0.053	inactive: -0.036	inactive: 0.001	inactive: 0.013	inactive: 0.024	inactive: 0.016	inactive: 0.045
DGKE (UniProt P52429)	inactive: -0.049	inactive: -0.126	inactive: 0.121	inactive: -0.017	inactive: -0.252	inactive: -0.129	inactive: -0.032	inactive: 0.11	inactive: -0.301	
DDX23 (UniProt Q9BUQ8)	inactive: -0.043	inactive: 0.282	inactive: -0.067	inactive: 0.201	inactive: -0.124	inactive: 0.058	inactive: -0.079	inactive: -0.057	inactive: 0.226	inactive: 0.095
DDX17 (UniProt Q92841)	inactive: 0.047	inactive: 0.047	inactive: 0.01	inactive: 0.007	inactive: -0.046	inactive: 0.035	inactive: -0.023	inactive: 0.021	inactive: 0.036	inactive: 0.032
DEK (UniProt P35659)	inactive: 0.179	inactive: -0.03	inactive: 0.093	inactive: -0.006	inactive: 0.002	inactive: 0.026	inactive: 0.019	inactive: -0.018	inactive: -0.016	inactive: 0.035
DNAH8 (UniProt Q96JB1)	inactive: 0.029	inactive: 0.015	inactive: -0.073	inactive: -0.016	inactive: 0.078	inactive: 0.015	inactive: -0.052	inactive: 0.222	inactive: 0.031	
DECR1 (UniProt Q16698)	inactive: 0.023	inactive: -0.016	inactive: 0.001	inactive: -0.063	inactive: 0.002	inactive: -0.049	inactive: -0.005	inactive: 0.004	inactive: 0.012	inactive: -0.06
DDA1 (UniProt Q9BW61)	inactive: 0.01	inactive: -0.006	inactive: -0.035	inactive: 0.006	inactive: -0.062	inactive: 0.015	inactive: 0.005	inactive: 0.026	inactive: -0.011	inactive: 0.07
DLG1 isoform 2 (UniProt Q12959)	inactive: -0.018	inactive: -0.033	inactive: 0.034	inactive: 0.098	inactive: -0.043	inactive: -0.026	inactive: 0.028	inactive: 0.003	inactive: 0.062	inactive: -0.006
